Data from US20230099067A1, “STABLE EQUIVALENT OF RESOLVIN E2” (NATIONAL UNIVERSITY CORPORATION HOKKAIDO UNIVERSITY, priority 2020, published 2023).
Some results were stated once for a whole list of compounds, not compound by compound.

Assay: Evaluation of metabolic stability with human liver microsomes (HPLC remaining rate)
Type: in vitro ADME
Conditions: after 6 hours, 37° C., 0.1 M PBS pH 7.4, NADPH regeneration system; FIG. 2
Procedure: 60 μL was aliquoted from an ethanol solution (1 mg/1 mL) of the synthetic compound to be evaluated, and the solvent was removed. A 0.1 M PBS buffer (435 μL, pH 7.4), CH3CN (10 μL), an NADPH regeneration system A solution (25 μL), and an NADPH regeneration system B solution (5 μL) were added to each compound, and stirring was carried out with a vortex mixer. After incubating the obtained reaction solution at 37° C. for 5 minutes, human liver microsomes (Corning (registered trade name) UltraPool (registered trade name) HLM 150) (25 μL) were added thereto, and 80 μL of the solution was aliquoted every hour (after 0, 1, 2, 3, and 6 hours from the addition). Each of the aliquoted solutions was quenched by adding CH3CN (80 μL) and then centrifuged (10,000 rpm) for 3 minutes at room temperature. The supernatant was collected and analyzed by using HPLC (COSMOSIL 5C18-MS-II, 4.6 mm×250 mm, CH3CN/H2O/TFA=35/65/0.01, 1.0 mL/min, detection at 254 nm).
The metabolic stability of 17-deoxy-o-BZ-RvE2 and 5-deoxy-o-BZ-RvE2 with respect to human liver microsomes was investigated. Specifically, for RvE2, o-BZ-RvE2, 17-deoxy-o-BZ-RvE2, and 5-deoxy-o-BZ-RvE2, the temporal change in the remaining rate (%) was measured by HPLC in 0.1 M PBS (pH 7.4) in the presence of human liver microsomes at 37° C. (n=3).

For `CC[C@@H](O)/C=C/c1ccccc1C/C=C/[C@@H](O)CCCC(=O)O` [o-BZ-RvE2], the “remaining rate after mixing with human liver microsomes” value was at least 90%.
